In publication PMC2581486:
Results are given in words; binding and its absence hold for the method and conditions named. Some binding calls cover weakened binding; strength is not graded here.

Target: outer membrane protein F (WT OmpF), trimer purified from the outer membrane with bound LPS (E. coli) (UniProt P02931)
Assay: electron crystallography of negatively stained 2D crystals; both purified

B1: outer membrane protein F (WT OmpF), trimer purified from the outer membrane with bound LPS (protein, UniProt P02931 23-362)
chain: AEIYNKDGNKVDLYGKAVGLHYFSKGNGENSYGGNGDMTYARLGFKGETQINSDLTGYGQWEYNFQGNNSEGADAQTGNKTRLAFAGLKYADVGSFDYGRNYGVVYDALGYTDMLPEFGGDTAYSDDFFVGRVGGVATYRNSNFFGLVDGLNFAVQYLGKNERDTARRSNGDGVGGSISYEYEGFGIVGAYGAADRTNLQEAQPLGNGKKAEQWATGLKYDANNIYLAANYGETRNATPITNKFTNTSGFANKTQDVLLVAQYQFDFGLRPSIAYTKSKAKDVEGIGDVDLVNYFEVGATYYFNKNMSTYVDYIINQIDSDNKLGVGSDDTVAVGIVYQF
**Q.** For B1, which binding is on record?
**A.** binds
